The test system of the experiment is OVCAR8. The experiment is described as follows: cell count relative to DMSO vehicle (fold change); higher = more surviving senescent cells (less killing). The note with it: senescence inducer: cisplatin 10 µM 48 h, then 6 d recovery (CP senescent), exposure time 24 h.

The record followed here is the supplement of paper PMC12462457.

± gives the standard deviation of the averaged measurements. This is one part of the list. Repeats in this data set agree poorly, so a single value says little.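 Cells were counted by imaging DAPI-stained nuclei, and cells lacking phalloidin-stained cytoplasm were excluded as dead. Each well's count was divided by the median count of the vehicle wells on the same plate, and values were averaged over two replicate plates.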

As to `O=C1/C(=C/C=C/c2ccco2)SC(=S)N1NS(=O)(=O)c1ccccc1`, the cell count reads like this: (compound dose 1 µM) 0.979 ± 0.41; (compound dose 5 µM) 0.644 ± 0.099.
The matching figures for `Cc1c(CN2CCN(C(=O)[C@H](C)O)CC2)sc2c(N3CCOCC3)nc(-c3cnc(N)nc3)nc12` [Apitolisib]: 1.17 and 0.69 ± 0.34.
The matching figures for `COc1nc(OCc2cccc(-c3ccccc3)c2C)ccc1CNCCNC(C)=O`: 1.17 ± 0.1 and 0.96 ± 0.057.
On to `Cn1c(-c2ccccc2C(F)(F)F)nnc1C12CCC(c3noc(C4CC(F)(F)C4)n3)(CC1)CC2`, for which the cell count runs as follows: (compound dose 1 µM) 1.45 ± 0.067; (compound dose 5 µM) 1.37 ± 0.17.
Taken in the same sequence, the figures for `C=C1C(=O)[C@@]23[C@H](O)C[C@@H]4C(C)(C)C(=O)CC[C@@]4(C)[C@@H]2CC[C@@H]1[C@H]3O` [Glaucocalyxin A] were 0.75 ± 0.15 and 0.104 ± 0.088.
Taken in the same sequence, the figures for `Cc1cc(CN2CCN(c3c(Br)cnc4nc(-c5ccc(N6CCN(C)CC6)cc5)[nH]c34)CC2)no1` were 1.09 ± 0.044 and 0.409 ± 0.1.
For the compound `N#Cc1cc2cc(CN3CCC(Nc4ncnc5sc(CC(F)(F)F)cc45)CC3)ccc2[nH]1`, the cell count was 1.2 ± 0.19 (compound dose 1 µM) and 0.837 ± 0.13 (compound dose 5 µM).
Taken in the same sequence, the figures for `Cc1cccc(CC(=O)N2CCc3c2ccc(-c2cn(C)c4ncnc(N)c24)c3F)n1` were 0.95 ± 0.091 and 0.996 ± 0.023.
Taken in the same sequence, the figures for `O=c1c(O[C@@H]2O[C@H](CO)[C@H](O)[C@H](O)[C@H]2O)c(-c2ccc(O)c(O)c2)oc2cc(O)cc(O)c12` [Hyperoside] were 1.02 ± 0.13 and 0.939 ± 0.19.
Taken in the same sequence, the figures for `CCn1c2ccccc2c2cc(CNCc3ccccc3OC)ccc21` were 0.983 ± 0.14 and 1.04 ± 0.12.
For the compound `COCCOc1cc2nccc(Nc3n[nH]c(C)c3C)c2cc1S(=O)(=O)C(C)(C)C` [RIP2 kinase inhibitor 2], the cell count is, setting by setting: (compound dose 1 µM) 1.23 ± 0.22; (compound dose 5 µM) 0.9 ± 0.035.
The matching figures for `CC[C@@H](C)Nc1cc(C(=O)N[C@H]2C[C@H]3CC[C@@H](C2)N3c2ccc(C(=O)C3CC3)cn2)c(C)cc1C(N)=O`: 0.432 ± 0.034 and 0.469 ± 0.096.
Taken in the same sequence, the figures for `Cc1ccc(NC(=O)c2cccc(C(C)(C)C#N)c2)cc1Nc1ccc2ncn(C)c(=O)c2c1` were 0.781 ± 0.044 and 0.928 ± 0.07.
Taken in the same sequence, the figures for `OCCN(CCO)c1nc(N2CCCCC2)c2nc(N(CCO)CCO)nc(N3CCCCC3)c2n1` were 0.974 ± 0.23 and 0.891 ± 0.054.
Regarding `COc1cccc(Nc2nc(NCC3CCCO3)c3ccccc3n2)c1` (configuration not stated), the cell count is, setting by setting: (compound dose 1 µM) 1.24 ± 0.16; (compound dose 5 µM) 0.749 ± 0.22.
Taken in the same sequence, the figures for `Clc1ccc(C(c2c[nH]c3ccccc23)c2c[nH]c3ccccc23)cc1` were 1.16 ± 0.12 and 1.14 ± 0.11.
The matching figures for `CC(=O)N(Cc1ccc(F)cc1)C1=C(NCc2ccccc2)C(=O)c2ccccc2C1=O`: 1.02 ± 0.16 and 1.07 ± 0.16.
Taken in the same sequence, the figures for `Cc1ccc(F)c(NC(=O)Nc2ccc(-c3cccc4[nH]nc(N)c34)cc2)c1` [Linifanib (ABT-869)] were 1.22 ± 0.24 and 0.908 ± 0.012.
With `O=C(O)c1ccccc1O`, the cell count runs as follows: (compound dose 1 µM) 1.29 ± 0.15; (compound dose 5 µM) 1.29 ± 0.098.
The matching figures for `CCN1CCN(C(c2ccc(C(F)(F)F)cc2)c2ccc3cccnc3c2O)CC1` (configuration not stated): 1.19 ± 0.18 and 1.093 ± 0.005.
Taken in the same sequence, the figures for `Cc1c(-c2c(-c3ccc(F)o3)sc3ncnc(O[C@H](Cc4ccccc4OCc4ccnn4CC(F)(F)F)C(=O)O)c23)ccc(OCCN2CCN(C)CC2)c1Cl` were 0.883 and 0.957 ± 0.014.
Taken in the same sequence, the figures for `O=C(O)c1cc(/N=N/c2ccc(S(=O)(=O)Nc3ccccn3)cc2)ccc1O` were 1.15 ± 0.05 and 0.809 ± 0.13.
Turning to `COc1ccc(C2=N[C@@H](c3ccc(Cl)cc3)[C@@H](c3ccc(Cl)cc3)N2C(=O)N2CCNC(=O)C2)c(OC(C)C)c1` [Nutlin-3a], the cell count by setting is: (compound dose 1 µM) 1.08 ± 0.24; (compound dose 5 µM) 0.694 ± 0.099.
As for `CNC(=O)c1ccc2c(c1)ncn2-c1ccc(CC(=O)OC(C)(C)C)cc1`, the cell count runs as follows: (compound dose 1 µM) 1.02 ± 0.085; (compound dose 5 µM) 0.906 ± 0.016.
The matching figures for `NC(=O)c1ccc(-c2nc(-c3ccccn3)c(-c3ccc4c(c3)OCO4)[nH]2)cc1`: 0.819 ± 0.012 and 0.474 ± 0.18.
Taken in the same sequence, the figures for `CC(C)(C)c1ccc(S(=O)(=O)/C=C/C#N)cc1` were 0.87 ± 0.11 and 0.233 ± 0.098.
Taken in the same sequence, the figures for `COc1ccc2cc(C(C)C(=O)Oc3ccc(C(N)=S)cc3)ccc2c1` (configuration not stated) were 1.15 ± 0.16 and 1.26 ± 0.061.
In turn, `COc1ccc(-c2nc(-c3cc(C(F)(F)F)cc(C(F)(F)F)c3)n(Cc3ccc(C(N)=O)cc3)c2-c2ccc(OC)cc2)cc1` [Apoptozole] returned a cell count (compound dose 1 µM) of 0.853 ± 0.0014 and a cell count (compound dose 5 µM) of 0.694 ± 0.17.
Taken in the same sequence, the figures for `Cc1ccc2ccc(C(Nc3ccccc3)c3ccccc3)c(O)c2n1` (configuration not stated) were 1.07 ± 0.19 and 1.2 ± 0.21.
The matching figures for `C[C@H]1[C@H](C)CC[C@]2(C(=O)O[C@@H]3O[C@H](CO[C@@H]4O[C@H](CO)[C@@H](O[C@@H]5O[C@H](C)[C@H](O)[C@@H](O)[C@H]5O)[C@H](O)[C@H]4O)[C@@H](O)[C@H](O)[C@H]3O)CC[C@]3(C)C(=CC[C@@H]4[C@@]5(C)C[C@@H](O)[C@H](O)[C@@](C)(CO)[C@@H]5CC[C@]43C)[C@H]12` [Asiaticoside]: 1.14 ± 0.12 and 1.18 ± 0.056.
The matching figures for `CCOC(=O)[C@@H](N)CCC(=O)N[C@@H](CSCc1ccccc1)C(=O)N[C@@H](C(=O)OCC)c1ccccc1` [Ezatiostat]: 1.27 ± 0.06 and 1.173 ± 0.0042.
Compound `Cn1cc(/C=C2\C(=O)Nc3cccnc32)c2ccccc21` had a cell count (compound dose 1 µM) of 1.2 ± 0.18 and a cell count (compound dose 5 µM) of 1.44 ± 0.2.
For the compound `Cc1sc2c(c1C)C(c1ccc(Cl)cc1)=N[C@@H](CC(=O)NCCCCCCCCNC(=O)COc1cccc3c1C(=O)N(C1CCC(=O)NC1=O)C3=O)c1nnc(C)n1-2` (some centres not stated), the cell count is, setting by setting: (compound dose 1 µM) 0.761 ± 0.086; (compound dose 5 µM) 0.667 ± 0.13.
Taken in the same sequence, the figures for `CC(=O)N[C@@H](C)C(=O)N[C@@H](CO)C(=O)NC(C)(C)C(=O)N[C@@H](CC(C)C)C(=O)N[C@@H](CCCN=C(N)N)C(=O)N[C@@H](CCCCN)C(=O)N[C@@H](CC(C)C)C(=O)NC(C)(C)C(=O)N[C@@H](CCCCN)C(=O)N[C@@H](CCCN=C(N)N)C(=O)N[C@@H](CC(C)C)C(=O)N[C@@H](CC(C)C)C(N)=O` were 1.33 ± 0.037 and 0.578 ± 0.088.
Turning to `CCC[C@H](N[C@H]1CCc2cc(F)cc(F)c2C1)C(=O)Nc1cn(C(C)(C)CNCC(C)(C)C)cn1` [Nirogacestat], the cell count (compound dose 1 µM) is 0.914 ± 0.088 and the cell count (compound dose 5 µM) amounted to 0.8065 ± 0.0078.
The matching figures for `CN1C(=O)C(Cc2c[nH]c3ccccc23)NC1=S` (configuration not stated) [Necrostatin-1]: 1.36 ± 0.15 and 1.18 ± 0.073.
The matching figures for `Cc1cc2c(s1)Nc1ccccc1N=C2N1CCN(C)CC1`: 1.16 ± 0.13 and 0.569 ± 0.35.
Taken in the same sequence, the figures for `CCN(CC)CCOc1ccc(Nc2ncc3cc(-c4c(Cl)cccc4Cl)c(=O)n(C)c3n2)cc1` were 0.097 ± 0.033 and 0.132 ± 0.012.
`COc1c(/C=C/C(=O)c2ccc(O)c(CC=C(C)C)c2)ccc(O)c1O` [Licochalcone D]: the cell count (compound dose 1 µM) was 1.04 ± 0.016 and the cell count (compound dose 5 µM) turned out to be 0.669 ± 0.038.
Taken in the same sequence, the figures for `Nc1ccc(-c2ccc3ncc4ccc(=O)n(-c5cccc(C(F)(F)F)c5)c4c3c2)cn1` [Torin 2] were 0.291 ± 0.032 and 0.291 ± 0.024.
The matching figures for `CC(C)C[C@H](NC(=O)[C@H](Cc1ccccc1)C[C@@H](O)[C@H](Cc1ccccc1)NC(=O)OC(C)(C)C)C(=O)N[C@@H](Cc1ccccc1)C(N)=O`: 1.15 ± 0.063 and 0.846 ± 0.095.
